Laboratory results taken from US20160040240A1, “CACNA1C ALLELE AND TREATMENT OF MOOD DISORDERS” (THE UNIVERSITY OF CHICAGO, priority 2014, published 2016).
At least one structure is not confirmed: it was looked up by name or label, or the drawing left a doubt.

Experiments:
patient with TS Type 2 = test: Case report: treatment of a patient with Timothy Syndrome type 2 and bipolar disorder; assay type: in vivo, human; conditions: prescribed for depression, TS patient already on verapamil
Text: The patient is a person with TS Type 2 (see below) diagnosed in childhood. The patient was referred for research evaluation after diagnosis of BD by one of us (FO). This was confirmed by interview with the patient and their parent, using the Diagnostic Interview for Genetic Studies (DIGS), version 3.0.
Ten months after starting the medication, they were referred to a neurologist, who found depression and prescribed citalopram.
They were restarted on their antidepressant and has been stable for the three years of observation since then. We note that this is not a typical course of BD, and that further observation will be needed to fully define their course.

[1] = system: neuronal induced pluripotent stem cells (iPSCs) derived from TS patients; conditions: TS patient iPSC-derived neuronal cells; cited from earlier work

SMILES	mood and behavior (patient with TS Type 2)	reversal of excess expression of TH [1]
CN(C)CCCC1(c2ccc(F)cc2)OCc2cc(C#N)ccc21 (centres unmarked) [citalopram]	significant improvement	
COCCOC(=O)C1=C(C)NC(C)=C(C(=O)OC(C)C)C1c1cccc([N+](=O)[O-])c1 (centres unmarked) [nimodipine]		failed to reverse
